For at least one entry, the source does not settle the construct or the ends of the probe. A negative result means that nothing was seen under these conditions. At least one verdict rests on a figure or table, not on a statement of the authors.
Tested on: PDGF (platelet-derived growth factor)
Test: impedance spectroscopy on aptamer-grafted interdigitated sensor
Settings: PDGF in PBS, specificity control, values not in the material; grafted on NHS-functionalized mercapto monolayer; attachment group on the DNA not stated; proteins diluted in PBS (5 and 50 pM), about 25 °C, impedance 2.5-100 kHz; aptamer grafted at 50 nM, pH 8, 24 h; water pH 7 as control; commercial protein; single-stranded DNA

ATACCAGTCTATTCAATTGGGCCCGTCCGTATGGTGGGTGTGCTGGCCAGATAGTATGTGCAATCA [VEGF165 DNA aptamer]
binding result: no binding

— paper PMC10381268, “VEGF Detection via Impedance Spectroscopy on Surface Functionalized Interdigitated Biosensor”
